Experimental data as given in PMC5397059 (PLoS ONE, 2017).

Tests used:
[1] = general procedure: Fmoc solid-phase peptide synthesis; 2-chlorotrityl chloride; HATU/DIPEA in NMP; cyclisation in solution with HATU/HOBt/DIPEA; details: whole synthesis
[2] = general procedure: Fmoc solid-phase peptide synthesis; 2-chlorotrityl chloride resin; HATU/DIPEA in NMP; cyclisation in solution with HATU/HOBt/DIPEA
[3] = late stage modification step, UPLC-MS (UV)

Row | Substance | crude yield ([1]; scale 0.3 mmol) [%] | further results
1 | H-V[Asn(Trt)][dOrn](Boc)[Phe(4-Cl)]L[dL]-OH | 98 | 
2 | H-W(Boc)[NMeL][dL][NMeV][Asn(Trt)][dOrn](Boc)-OH | 90 | 
3 | H-[dL]II[dOrn](Boc)W(Boc)L-OH | 104 | 
4 | H-[dL][NMeV][Asn(Trt)][dOrn](Boc)W(Boc)L-OH | 93 | 
5 | H2N-Val-N-Me-Asn(Trt)-D-Orn(Boc)-Trp(Boc)-N-Me-Leu-D-Leu-COOH | 96 | 
6 | H-[dL]V[dOrn](Boc)[dOrn](Boc)W(Boc)L-OH | 95 | 
7 | H-W(Boc)L[dL]IS(tBu)[dOrn](Boc)-OH | 78 | 
8 | H-[dL]M[Asn(Trt)][dOrn](Boc)W(Boc)L-OH | 96 | 
9 | H-W(Boc)[dOrn](Boc)[Asn(Trt)]V[dL]L-OH |  | crude yield ([1]; scale 0.5 mmol): 92%
10 | H-[dL]I[Asn(Trt)][dR](Pbf)W(Boc)L-OH | 96 | 
11 | H2N-Trp(Boc)-Leu-N-Me-D-Leu-Val-N-Me-Asn(Trt)-D-Orn(Boc)-COOH | 95 | 
12 | cyclo(II[dOrn]WL[dL]) (SMILES CC[C@H](C)[C@@H]1NC(=O)[C@H]([C@@H](C)CC)NC(=O)[C@@H](CC(C)C)NC(=O)[C@H](CC(C)C)NC(=O)[C@H](Cc2c[nH]c3ccccc23)NC(=O)[C@@H](CCCN)NC1=O) |  | step yield ([2]; late stage modification step): 70%; final HPLC purity [2, 3]: 99.9%
13 | H-[dL]V[Asn(Trt)][dOrn](Boc)W(Boc)A-OH |  | crude yield ([2]; whole synthesis, scale 0.3 mmol): 95%
14 | cyclo([NMeL][dL]V[NMeN][dOrn]W) (SMILES CC(C)C[C@H]1NC(=O)[C@H](CC(C)C)N(C)C(=O)[C@H](Cc2c[nH]c3ccccc23)NC(=O)[C@@H](CCCN)NC(=O)[C@H](CC(N)=O)N(C)C(=O)[C@H](C(C)C)NC1=O) |  | step yield ([2]; late stage modification step): 60%; final HPLC purity [2, 3]: 97%
15 | cyclo(I[dL]VN[dOrn]W) (SMILES CC[C@H](C)[C@@H]1NC(=O)[C@H](Cc2c[nH]c3ccccc23)NC(=O)[C@@H](CCCN)NC(=O)[C@H](CC(N)=O)NC(=O)[C@H](C(C)C)NC(=O)[C@@H](CC(C)C)NC1=O) |  | step yield ([2]; late stage modification step): 96%; crude HPLC purity [2, 3]: 95%

Non-standard residues stand in square brackets, D forms with d. *: point of attachment. Asn(Trt) = N[C@@H](CC(=O)NC(c1ccccc1)(c1ccccc1)c1ccccc1)C(=O)O; Pbf = Cc1c(C)c(S(=O)(=O)*)c(C)c2c1OC(C)(C)C2; Phe(4-Cl) = N[C@@H](Cc1ccc(Cl)cc1)C(=O)O; NMeN = CN[C@@H](CC(N)=O)C(=O)O; NMeL = CN[C@@H](CC(C)C)C(=O)O; NMeV = CN[C@H](C(=O)O)C(C)C; dOrn = NCCC[C@@H](N)C(=O)O; Boc = CC(C)(C)OC(=O)*; tBu = CC(C)(C)*
